Assay results as given in patent US10745663B2, “Methods for modulating production profiles of recombinant proteins” (ARES TRADING S.A., priority 2015, dated 2020).

Tested on: CHO-K1 cells expressing IgG1 mAb2
Type: cell-based, Chinese hamster
Experimental: Assays were performed with 2 CHO cell lines: • CHO-S cells expressing IgG1 mAb1, herein “Cells mAb1” or “mAb1 cells”. “mAb1” is a fully human monoclonal antibody directed against a soluble protein. Its isoelectric point (pI) is about 8.20-8.30. • CHO-K1 cells expressing IgG1 mAb2, herein “Cells mAb2” or “mAb2 cells”. “mAb2” is a humanised monoclonal antibody directed against a receptor found on the cell membrane. Its isoelectric point (pI) is about 9.30.
Cells expressing mAb2 were inoculated at 0.2×10^6 cells per milliliter (mL), whereas cells expressing mAb1 were inoculated at 0.3×10^6 cells per mL.
All assays were performed in fed-batch culture. The host cells were cultured in fed-batch system either in microplates (“Deep well plate”) or in Spin Tubes®, and incubated at 36.5° C., 90% relative humidity, 5% CO2 and 320 rpm shaking during 14 days.
Viable cell density and viability were measured with the Guava easyCyte® flow cytometer or with the ViCell.
Antibody titres were measured either with the fortéBIO Octet® or with Biacore C®.
Glycosylation profiles were established by capillary gel electrophoresis with laser-induced fluorescence (CGE-LIF). Dosages of aggregates and fragments were performed respectively via Size Exclusion High Performance Liquid Chromatography (SE-HPLC) and via SDS-capillary gel electrophoresis. […]

Compound: O=S(=O)([O-])c1cc(N=C=S)ccc1/C=C/c1ccc(N=C=S)cc1S(=O)(=O)[O-].[Na+].[Na+] [DIDS, 4,4′-diisothiocyanostilbene-2,2′-disulfonic acid]
- glycosylation profile of the antibody mAb2 (Spin tubes, CGE-LIF): did not vary
- percentage of fragments and aggregates (mAb2, Spin tubes, SE-HPLC and SDS-capillary gel electrophoresis): slightly decreased
